Experimental data as given in the supplement of paper PMC3334620.
The full ranking holds about 33,000 sequences; the median of “E-score (-0.5 to 0.5)” is about -0.0014, and the highest 2% start at about 0.25. Some of the results follow.

Target: T1, Cad1 (UniProt P24813)
T1 sequence: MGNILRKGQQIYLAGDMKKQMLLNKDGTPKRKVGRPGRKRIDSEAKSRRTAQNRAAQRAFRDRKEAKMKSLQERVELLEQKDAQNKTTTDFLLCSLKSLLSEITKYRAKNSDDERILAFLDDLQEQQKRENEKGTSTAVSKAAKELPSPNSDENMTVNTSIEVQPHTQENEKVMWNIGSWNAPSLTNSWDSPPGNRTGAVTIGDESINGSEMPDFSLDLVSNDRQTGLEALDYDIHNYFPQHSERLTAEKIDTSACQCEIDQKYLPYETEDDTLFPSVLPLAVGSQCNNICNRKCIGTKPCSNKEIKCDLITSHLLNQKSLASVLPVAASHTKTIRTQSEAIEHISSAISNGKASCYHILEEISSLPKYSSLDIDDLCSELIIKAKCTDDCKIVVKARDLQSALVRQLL
Assay: PBM E-score (8-mer binding enrichment) (E-score (-0.5 to 0.5)); higher = stronger / more preferred TF binding
Details: protein concentration: 100 nM; construct: GST-full length
Summary of the method: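 Bound GST-tagged yeast transcription factors, applied at about 100-200 nM to double-stranded universal all-10-mer Agilent arrays, were detected with fluorescent anti-GST. Scans were normalised with masliner. A modified Wilcoxon-Mann-Whitney statistic, the E-score, was assigned to each ungapped eight-base word pooled with its reverse complement by the Universal PBM Analysis Suite.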

Sequence | PBM E-score
ATGAGGAG | -0.158
CCCGTCAC | -0.146
ATCGATGC | 0.184
CCGACTAG | -0.152
AAATTTAT | 0.171
CTTAATGA | 0.00816
AGCGGCAT | 0.194
GACGATAA | 0.212
AGTATCAC | 0.182
GATCTTCC | -0.149
AATCACGG | 0.248
GTCCAGGA | -0.0388
GCATTTCC | 0.174
TTCACCAA | -0.00247
AAACTGCC | -0.159
CGTTCAGA | -0.149
AGTACAAA | -0.11
CGGCGATA | 0.0896
CAACACTG | 0.0553
CGCTACCC | -0.123
CGATAACA | 0.0644
ATGATGCA | 0.222
ATTGCATA | 0.147
ACTGATAT | 0.0751
AGCTAACC | -0.157

Sequence | PBM E-score
ACACAAAT | 0.196
AAGCATGG | -0.157
CCGCAGAG | -0.283
AACACGAG | 0.155
ATATGCAC | 0.0506
AGGTGGTC | -0.192
GTTACCCA | -0.188
GATCGGAC | 0.0634
AAGATTAC | 0.127
ACCTGAGG | -0.165
GCGATAGA | 0.0948
AAGTATCA | 0.11
ATCGTTGG | 0.0504
CAAACCAA | 0.185
ATATAGCA | -0.0269
ACACGCGG | 0.0311
GCTACACC | -0.0366
GCCTGGAA | -0.0634
ACATGTAG | 0.23
GGTTACGA | -0.112
ATGGGGTG | -0.206
CACTTTAC | -0.00139
ATTAAGGC | 0.111
CGTCTAAC | -0.0296
CTAATCAA | 0.238

Sequence | PBM E-score
AGGACGCC | 0.0115
CAGCGAAA | -0.0962
CCCTTTCA | -0.213
GTGGCCTA | -0.0869
ATTACAAG | 0.0206
CACGGGGA | -0.195
GCTAATAC | 0.152
ACATTATA | 0.0217
CTCTTCCA | -0.0682
CCGTATCA | 0.0249
TTGATAAA | 0.188
ATAACGGG | -0.0177
ATGAATCA | 0.0957
GACAAGTC | 0.00519
CATACACG | 0.0422
CTGCAGGA | 0.143
TCCGAGAA | 0.129
GAATGACA | 0.0489
AATAGCGT | 0.108
CAGGTAAG | -0.157
CGAGCTCA | 0.159
AGGCGGTA | -0.177
GTAAGCGA | 0.281
CCATAAAC | -0.119
AGACGCGC | 0.0927

Sequence | PBM E-score
AAGAATGT | 0.0558
CGACCCGA | -0.123
CCAGGCGG | -0.0898
GGGTGGCA | -0.124
GGTCCCAC | -0.158
AGGTCGAA | 0.0571
CCGTTGAA | -0.112
CAGAATCC | 0.062
TATAACGA | 0.152
ATCGGCTA | -0.0351
CCCACCTA | -0.201
ACTAAACC | 0.0291
ACGAGTGC | 0.0809
GCGTAACC | -0.0767
ATGGTTAC | 0.034
CGCCACCA | -0.233
CATATAGC | 0.106
GGATTGGA | -0.00674
CGACTTAC | 0.123
AAGGGCAG | -0.0938
ACAGTAAA | 0.0557
GAGTGACC | -0.0636
GGCAATTA | 0.0903
CTGTTTAA | 0.0316
ATACCGGC | 0.0748

Sequence | PBM E-score
CCTTCGTA | -0.145
CTTTCGGC | -0.0784
CACATCTG | -0.126
AGTACGGG | -0.17
TAAGCTAA | 0.22
AATCGCAA | 0.0999
AAACAAAG | 0.055
ATGGATAC | 0.115
AAGTAAAC | 0.0793
GTCGCCAC | -0.117
CGATAGTC | 0.168
TCATTTAA | -0.032
CGTGGCAA | -0.252
GTACCGAC | -0.118
AGAACTCT | -0.0345
AGGCACCG | -0.155
GAGAGGCA | -0.133
CCACACCA | -0.00856
TCTGGTAA | 0.208
CACACTAA | 0.116
ACTCGTAT | 0.0214
AGAGACCC | -0.164
GACCGTGC | -0.0838
AGGCTGAA | -0.0576
GTGAGCGA | -0.11

Not a retest: entries from further up.
Sequence | PBM E-score
GCTAATAC | 0.152
ACATTATA | 0.0217
CTCTTCCA | -0.0682
CCGTATCA | 0.0249
TTGATAAA | 0.188
ATAACGGG | -0.0177
ATGAATCA | 0.0957
GACAAGTC | 0.00519
CATACACG | 0.0422
CTGCAGGA | 0.143
TCCGAGAA | 0.129
GAATGACA | 0.0489
AATAGCGT | 0.108
CAGGTAAG | -0.157
CGAGCTCA | 0.159
AGGCGGTA | -0.177
GTAAGCGA | 0.281
CCATAAAC | -0.119
AGACGCGC | 0.0927
AAGAATGT | 0.0558
CGACCCGA | -0.123
CCAGGCGG | -0.0898
GGGTGGCA | -0.124
GGTCCCAC | -0.158
AGGTCGAA | 0.0571
CCGTTGAA | -0.112
CAGAATCC | 0.062
TATAACGA | 0.152
ATCGGCTA | -0.0351
CCCACCTA | -0.201
ACTAAACC | 0.0291
ACGAGTGC | 0.0809
GCGTAACC | -0.0767
ATGGTTAC | 0.034
CGCCACCA | -0.233
CATATAGC | 0.106
GGATTGGA | -0.00674
CGACTTAC | 0.123
AAGGGCAG | -0.0938
ACAGTAAA | 0.0557
GAGTGACC | -0.0636
GGCAATTA | 0.0903
CTGTTTAA | 0.0316
ATACCGGC | 0.0748
CCTTCGTA | -0.145
CTTTCGGC | -0.0784
CACATCTG | -0.126
AGTACGGG | -0.17
TAAGCTAA | 0.22
AATCGCAA | 0.0999
AAACAAAG | 0.055
ATGGATAC | 0.115
AAGTAAAC | 0.0793
GTCGCCAC | -0.117
CGATAGTC | 0.168
TCATTTAA | -0.032
CGTGGCAA | -0.252
GTACCGAC | -0.118
AGAACTCT | -0.0345
AGGCACCG | -0.155
GAGAGGCA | -0.133
CCACACCA | -0.00856
TCTGGTAA | 0.208
CACACTAA | 0.116
ACTCGTAT | 0.0214
AGAGACCC | -0.164

The results go on.

Sequence | PBM E-score
CAGGAGCG | -0.0398
CCGTCTCC | -0.0189
AAGGGTGA | -0.00878
CCCAGACC | -0.0761
CGAGTCCA | -0.275
GAGCGAAA | 0.0354
CTGGGCTC | -0.203
ACTTAACT | 0.101
CAATGGAC | 0.181
CTCGGGCC | -0.066
ACTGCATA | 0.153
CCGCCCAG | -0.169
GACTGCTA | -0.266
ATTTAGCG | 0.0109
ACCACAAC | 0.0754
AACCGATT | 0.139
CGAACCAC | -0.0167
AGTGCTCC | -0.233
AGAATCAG | 0.122
ATGTATCA | 0.113
GAGTAATC | 0.18
GCTGGACC | -0.159
AAAATGTT | 0.0552
GTAAATCA | 0.148
CGGAACAG | -0.0323

Sequence | PBM E-score
GAAGCCGC | 0.0904
TCCCACCA | -0.178
GACTGCTC | -0.072
GATAGCAC | -0.024
CAGGCATA | -0.0501
GGGACGGA | -0.264
AAGTACGA | 0.147
GAAGTGAA | -0.0294
GTCCGCTA | 0.0369
AGCGCCCA | -0.264
ACTAGGTG | -0.189
GCGCATAA | 0.0879
ATCTTACC | 0.0255
GCATAGGA | -0.0296
ATCTCCCA | -0.0779
ATTAGGTA | 0.207
GCGCCGCA | 0.149
CGCTGCCG | -0.119
TAACTAAA | 0.151
GACGGGCC | -0.201
CCGCGGCC | 0.0114
ACGTCTTA | 0.0131
GCTAAAAA | -0.0879
AGAATCTG | -0.0396
CACGCATA | -0.0949

Sequence | PBM E-score
CAGAGTAC | -0.16
CAACGCTG | 0.0342
TGCCTAAA | -0.0424
AGCGTTTA | 0.0708
GCCGAAGA | 0.0279
GGGGCAAA | -0.169
CATCTAAA | 0.115
AAATGCCT | -0.198
GACATGTA | 0.0721
ACTGCAAC | -0.162
GCCTAGCA | -0.245
AATATCCT | -0.0122
CCGGTCAG | 0.0259
GTCCATAA | -0.0891
ATCCGGTC | 0.00942
CAGGATCC | -0.00453
AATTTCCT | 0.171
AGACTATA | 0.127
AGTAAACC | -0.0417
CGACGTCA | 0.138
CAATTAAA | 0.143
CACGGACG | 0.115
CGCTTGCC | -0.166
TTAGAGAA | -0.283
ATGCCTCC | -0.072

Sequence | PBM E-score
CCCTCAGA | -0.181
GGGAGGAC | -0.131
CGGACACA | 0.00739
ACCGAAGT | 0.018
AATAGTCC | -0.111
GAACCCCC | -0.39
CTGTCACC | -0.17
CATGTCAG | 0.014
CTTTAAAG | -0.119
GCTTGGCC | -0.103
CTAGAATC | 0.00014
TCAGCCCA | -0.0475
CATCACTC | -0.133
GATCAAAC | 0.048
AGTGAGCC | -0.0314
AGTTGACG | 0.0895
GAAGCCTA | -0.0534
ACACGAAC | 0.144
CGTTTCAC | 0.0896
